From the supplement of paper PMC10849652
Some of the results follow. Residues, ends and D or L forms follow the SMILES beside them. *: point of attachment. Cbz = O=C(OCc1ccccc1)*

The chains behind the UniProt entries cited, without tags or fusion partners. Where a name states a change or a piece, a line headed by the entry shows the natural chain unless it says otherwise.
UniProt P42166: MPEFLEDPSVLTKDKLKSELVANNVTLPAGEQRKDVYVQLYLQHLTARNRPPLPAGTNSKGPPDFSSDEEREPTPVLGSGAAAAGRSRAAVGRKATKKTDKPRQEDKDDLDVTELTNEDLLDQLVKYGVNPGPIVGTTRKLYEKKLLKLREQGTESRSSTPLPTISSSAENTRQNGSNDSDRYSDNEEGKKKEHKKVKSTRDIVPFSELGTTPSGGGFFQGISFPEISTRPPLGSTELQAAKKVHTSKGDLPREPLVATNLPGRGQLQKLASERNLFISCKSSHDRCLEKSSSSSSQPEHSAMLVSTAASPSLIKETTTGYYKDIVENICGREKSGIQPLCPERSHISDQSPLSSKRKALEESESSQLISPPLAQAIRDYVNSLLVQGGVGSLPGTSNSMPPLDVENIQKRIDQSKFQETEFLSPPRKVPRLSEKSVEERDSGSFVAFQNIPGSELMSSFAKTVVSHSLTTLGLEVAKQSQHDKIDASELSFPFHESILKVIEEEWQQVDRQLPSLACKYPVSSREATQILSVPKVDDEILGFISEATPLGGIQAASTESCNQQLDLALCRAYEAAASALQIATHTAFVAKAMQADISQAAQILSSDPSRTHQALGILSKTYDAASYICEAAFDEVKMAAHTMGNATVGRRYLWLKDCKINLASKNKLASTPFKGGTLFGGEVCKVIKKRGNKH
UniProt Q9H1E5: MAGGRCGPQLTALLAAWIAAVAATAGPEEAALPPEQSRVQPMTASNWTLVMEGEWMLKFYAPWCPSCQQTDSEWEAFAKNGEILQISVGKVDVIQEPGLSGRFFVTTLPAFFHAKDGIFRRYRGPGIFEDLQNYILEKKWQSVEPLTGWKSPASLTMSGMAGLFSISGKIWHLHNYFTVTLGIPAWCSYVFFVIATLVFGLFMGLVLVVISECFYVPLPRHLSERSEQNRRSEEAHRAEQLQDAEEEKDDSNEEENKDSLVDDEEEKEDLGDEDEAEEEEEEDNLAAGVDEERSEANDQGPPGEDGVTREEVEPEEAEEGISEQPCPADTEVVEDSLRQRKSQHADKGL
UniProt P17152: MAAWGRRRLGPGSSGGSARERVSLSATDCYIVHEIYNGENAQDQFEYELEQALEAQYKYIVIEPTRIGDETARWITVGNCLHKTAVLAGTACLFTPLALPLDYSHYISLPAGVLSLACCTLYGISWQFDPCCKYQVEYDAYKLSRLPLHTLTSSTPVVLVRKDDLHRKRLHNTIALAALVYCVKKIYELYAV
UniProt P63313: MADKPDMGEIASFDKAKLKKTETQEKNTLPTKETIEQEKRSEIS
UniProt Q9H061: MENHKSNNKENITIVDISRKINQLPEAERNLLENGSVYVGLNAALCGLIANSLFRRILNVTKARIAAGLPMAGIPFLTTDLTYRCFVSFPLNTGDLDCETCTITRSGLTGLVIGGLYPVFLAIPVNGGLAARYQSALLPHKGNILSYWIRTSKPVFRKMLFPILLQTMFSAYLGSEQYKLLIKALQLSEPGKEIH
UniProt Q5BJF2, whole entry, looked up: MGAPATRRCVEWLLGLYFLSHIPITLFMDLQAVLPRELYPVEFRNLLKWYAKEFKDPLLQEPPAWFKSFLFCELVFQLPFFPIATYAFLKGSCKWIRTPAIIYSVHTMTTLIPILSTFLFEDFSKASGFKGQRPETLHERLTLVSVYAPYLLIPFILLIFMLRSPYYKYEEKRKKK
UniProt Q9H3N1: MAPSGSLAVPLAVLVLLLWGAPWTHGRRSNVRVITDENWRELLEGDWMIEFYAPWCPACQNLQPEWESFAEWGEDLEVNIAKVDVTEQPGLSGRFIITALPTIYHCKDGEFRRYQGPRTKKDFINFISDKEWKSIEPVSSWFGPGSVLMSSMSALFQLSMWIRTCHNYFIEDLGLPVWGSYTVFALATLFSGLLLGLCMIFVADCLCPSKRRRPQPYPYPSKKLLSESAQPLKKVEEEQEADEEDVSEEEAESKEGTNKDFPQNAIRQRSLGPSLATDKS
UniProt Q9BTX3: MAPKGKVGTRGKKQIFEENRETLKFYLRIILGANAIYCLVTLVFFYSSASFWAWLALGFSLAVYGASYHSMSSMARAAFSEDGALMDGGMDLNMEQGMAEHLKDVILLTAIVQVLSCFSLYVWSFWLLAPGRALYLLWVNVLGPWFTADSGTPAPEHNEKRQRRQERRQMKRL
UniProt Q9NX00: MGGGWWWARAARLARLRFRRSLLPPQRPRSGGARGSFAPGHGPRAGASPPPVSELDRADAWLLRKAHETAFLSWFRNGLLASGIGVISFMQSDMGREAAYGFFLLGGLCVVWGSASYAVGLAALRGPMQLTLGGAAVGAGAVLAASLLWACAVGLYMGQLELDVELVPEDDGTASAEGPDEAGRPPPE
UniProt Q96MH6: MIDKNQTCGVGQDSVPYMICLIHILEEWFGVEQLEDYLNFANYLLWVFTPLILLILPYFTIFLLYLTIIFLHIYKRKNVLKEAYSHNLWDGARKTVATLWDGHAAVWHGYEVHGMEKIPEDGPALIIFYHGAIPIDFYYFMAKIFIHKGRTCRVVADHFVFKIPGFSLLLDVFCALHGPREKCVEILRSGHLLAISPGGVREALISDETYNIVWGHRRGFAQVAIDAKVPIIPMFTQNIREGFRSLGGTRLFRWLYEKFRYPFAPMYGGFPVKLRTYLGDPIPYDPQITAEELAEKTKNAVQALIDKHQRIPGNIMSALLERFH
UniProt A5PLL7: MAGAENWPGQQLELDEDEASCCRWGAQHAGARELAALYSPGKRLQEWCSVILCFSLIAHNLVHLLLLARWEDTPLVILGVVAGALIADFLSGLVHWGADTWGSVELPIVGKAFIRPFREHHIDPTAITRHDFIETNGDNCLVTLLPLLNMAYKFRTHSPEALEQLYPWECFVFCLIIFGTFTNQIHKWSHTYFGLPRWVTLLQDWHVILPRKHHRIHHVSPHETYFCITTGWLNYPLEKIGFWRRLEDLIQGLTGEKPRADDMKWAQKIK
UniProt P55061, whole entry, looked up: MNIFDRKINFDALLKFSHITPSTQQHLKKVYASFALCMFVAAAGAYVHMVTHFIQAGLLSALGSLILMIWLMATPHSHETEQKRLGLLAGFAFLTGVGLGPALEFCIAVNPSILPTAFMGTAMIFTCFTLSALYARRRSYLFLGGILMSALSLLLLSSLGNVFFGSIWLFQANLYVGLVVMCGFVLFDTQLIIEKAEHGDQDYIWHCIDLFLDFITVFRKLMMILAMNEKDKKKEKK
UniProt Q9BTV4: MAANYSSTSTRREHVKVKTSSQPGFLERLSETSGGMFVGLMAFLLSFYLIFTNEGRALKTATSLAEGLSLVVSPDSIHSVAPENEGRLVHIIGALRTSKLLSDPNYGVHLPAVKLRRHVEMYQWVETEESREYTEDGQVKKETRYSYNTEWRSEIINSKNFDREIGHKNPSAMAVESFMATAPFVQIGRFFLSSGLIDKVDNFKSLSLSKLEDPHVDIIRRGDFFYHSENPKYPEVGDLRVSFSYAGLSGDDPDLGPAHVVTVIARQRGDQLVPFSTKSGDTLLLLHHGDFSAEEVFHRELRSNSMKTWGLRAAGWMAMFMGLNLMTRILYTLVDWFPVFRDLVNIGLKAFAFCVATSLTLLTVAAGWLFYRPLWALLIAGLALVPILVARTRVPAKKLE
UniProt Q8IY95: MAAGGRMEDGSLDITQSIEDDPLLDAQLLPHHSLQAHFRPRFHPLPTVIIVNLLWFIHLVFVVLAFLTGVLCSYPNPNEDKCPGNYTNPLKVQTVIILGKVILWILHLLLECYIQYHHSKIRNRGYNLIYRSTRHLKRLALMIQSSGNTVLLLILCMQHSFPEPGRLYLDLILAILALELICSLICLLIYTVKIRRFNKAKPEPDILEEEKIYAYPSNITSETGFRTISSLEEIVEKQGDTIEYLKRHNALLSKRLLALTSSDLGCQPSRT

Columns and labels:
Test in all cases: log2 fold change, soluble protein after heating vs DMSO (PISA); higher = thermal stabilisation; K562 cells, 10 uM, 30 min; active = over 0.2 and 3.5 SD of the protein, either way, in both replicates (recomputed)
IRAK-1-4 Inhibitor I = compound: C1COCCN1CCN2C3=CC=CC=C3N=C2NC(=O)C4=CC(=CC=C4)[N+](=O)[O-] [IRAK-1-4 Inhibitor I]
Outline: (§1)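 Quantification of soluble protein used TMTpro 16plex LC-MS/MS, with channel sums equalised. Samples were the supernatant after 21,000xg for 90 min of pooled aliquots from K562 cells (2×10^6 cells/mL) treated with 10 μM compound for 30 min, heated for 3 min over 48°C-58°C, and extracted in PBS with 0.5% NP-40 at 4°C. Values, from duplicates, describe thermal stability against control samples on a log2 fold-change scale.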

ibrutinib = compound: C=CC(=O)N1CCC[C@@H](n2nc(-c3ccc(Oc4ccccc4)cc3)c3c(N)ncnc32)C1 [ibrutinib]
Outline: as §1

[1] = compound: CC(=O)c1cnc2ccc(-c3cc(Cl)c(O)c(Cl)c3)nc2c1N[C@H]1CC[C@H](CN(C)C)CC1
Outline: as §1

ralimetinib = compound: CC(C)(C)Cn1c(N)nc2ccc(-c3[nH]c(C(C)(C)C)nc3-c3ccc(F)cc3)nc21 [ralimetinib]
Outline: as §1

[2] = compound: CC(C)(O)CC(=O)NCCn1ccc2ncnc(Nc3ccc(Oc4cccc(C(F)(F)F)c4)c(Cl)c3)c21
Outline: as §1

[3] = compound: CC(C)C1=C2N=C(C=C(N2N=C1)NCC3=CC=CC=C3)NCCCCCCN
Outline: as §1

[4] = compound: CC(C)C[C@@H](C=O)NC(=O)[C@H](CC(C)C)NC(=O)[C@H](CC(C)C)NC(=O)OCc1ccccc1
Outline: as §1

pinometostat = compound: CC(C)N(C[C@H]1O[C@@H](n2cnc3c(N)ncnc32)[C@H](O)[C@@H]1O)[C@H]1C[C@@H](CCc2nc3cc(C(C)(C)C)ccc3[nH]2)C1 [pinometostat]
Outline: as §1

[5] = compound: CC1=C(C(CC(=O)N1)C2=CC=C(C=C2)C(F)(F)F)C(=O)NC3=C(C=C4C(=C3)C=NN4)F
Outline: as §1

[6] = compound: CC1=C(C2=C(C=C1)C(=O)C3=CC=CC=C3N2CCCN)C
Outline: as §1

[7] = compound: CC1=C(C=C(C=C1)NC(=O)C2=CC(=CC=C2)C(C)(C)C#N)NC3=CC4=C(C=C3)N=CN(C4=O)C
Outline: as §1

[8] = compound: CC1=C(C=C(C=C1)NC(=O)C2=CC(=CC=C2)N(C)C)NC(=O)C3=CC=C(C=C3)O
Outline: as §1

[9] = compound: CC1=CC=C(C=C1)SC2=C3C=C(SC3=CN=C2)C(=O)N
Outline: as §1

[10] = compound: CC1=NC(=CC=C1)C2=C(N=C(N2)C(C)(C)C)C3=CC4=NC=CN=C4C=C3
Outline: as §1

Nexturastat A = compound: CCCCN(Cc1ccc(C(=O)NO)cc1)C(=O)Nc1ccccc1 [Nexturastat A]
Outline: as §1

vemurafenib = compound: CCCS(=O)(=O)Nc1ccc(F)c(C(=O)c2c[nH]c3ncc(-c4ccc(Cl)cc4)cc23)c1F [vemurafenib]
Outline: as §1

[11] = compound: CCCS(=O)(=O)Nc1ccc(F)c(C(=O)c2c[nH]c3ncc(Cl)cc23)c1F
Outline: as §1

[12] = compound: CCCc1cc(C)[nH]c(=O)c1CNC(=O)c1cc(-c2ccnc(N3CCN(C)CC3)c2)cc2c1cnn2C(C)C
Outline: as §1

givinostat = compound: CCN(CC)Cc1ccc2cc(COC(=O)Nc3ccc(C(=O)NO)cc3)ccc2c1 [givinostat]
Outline: as §1

barasertib = compound: CCN(CCCOc1ccc2c(Nc3cc(CC(=O)Nc4cccc(F)c4)[nH]n3)ncnc2c1)CCOP(=O)(O)O [barasertib]
Outline: as §1

Measured: log2 fold change

TMPO (UniProt P42166)
inactive: IRAK-1-4 Inhibitor I 0.052 | ibrutinib 0 | [1] 0.047 | ralimetinib 0.039 | [2] -0.077 | [3] -0.176 | [4] -0.015 | pinometostat -0.012 | [5] 0.04 | [6] -0.016 | [7] 0.003 | [8] 0.002 | [9] -0.019 | [10] 0.011 | Nexturastat A -0.01 | vemurafenib -0.025 | [11] 0.009 | [12] -0.03 | givinostat 0.07 | barasertib 0.028

TMX4 (UniProt Q9H1E5)
inactive: IRAK-1-4 Inhibitor I -0.02 | ibrutinib -0.006 | [1] -0.052 | ralimetinib 0.028 | [2] 0.017 | [3] 0.032 | [4] -0.01 | pinometostat 0.049 | [5] -0.015 | [6] 0.045 | [7] -0.009 | [8] 0.032 | [9] -0.067 | [10] -0.092 | Nexturastat A 0.005 | vemurafenib -0.023 | [11] -0.085 | [12] -0.024 | givinostat 0 | barasertib 0.03

TMEM11 (UniProt P17152)
inactive: IRAK-1-4 Inhibitor I -0.015 | ibrutinib 0.027 | [1] 0.033 | ralimetinib 0.022 | [2] 0.044 | [3] -0.059 | [4] -0.09 | pinometostat 0.01 | [5] 0.016 | [6] 0.039 | [7] -0.063 | [8] -0.031 | [9] 0.023 | [10] 0.051 | Nexturastat A -0.085 | vemurafenib 0.003 | [11] 0.009 | [12] -0.007 | givinostat -0.074 | barasertib 0.012

TMSB10 (UniProt P63313)
inactive: IRAK-1-4 Inhibitor I 0.074 | ibrutinib -0.023 | [1] -0.1 | ralimetinib -0.143 | [2] -0.058 | [3] 0.097 | [4] -0.104 | pinometostat -0.068 | [5] -0.013 | [6] 0.275 | [7] 0.003 | [8] -0.034 | [9] 0.055 | [10] 0.079 | Nexturastat A -0.041 | vemurafenib 0.14 | [11] -0.007 | [12] 0.008 | givinostat -0.071 | barasertib 0.055

TMEM126A (UniProt Q9H061)
inactive: IRAK-1-4 Inhibitor I 0.032 | ibrutinib 0.038 | [1] 0.023 | ralimetinib -0.049 | [2] 0.002 | [3] -0.029 | [4] 0.01 | pinometostat -0.066 | [5] -0.022 | [6] 0.007 | [7] -0.009 | [8] -0.013 | [9] -0.003 | [10] -0.002 | Nexturastat A -0.035 | vemurafenib 0.001 | [11] -0.036 | [12] -0.025 | givinostat 0.006 | barasertib -0.016

TMA16 (UniProt Q96EY4)
inactive: IRAK-1-4 Inhibitor I -0.057 | ibrutinib 0.024 | [1] 0.108 | ralimetinib 0.095 | [2] 0.003 | [3] 0.039 | [4] 0.077 | pinometostat 0.268 | [5] -0.046 | [6] -0.166 | [7] 0.064 | [8] -0.106 | [9] -0.013 | [10] -0.112 | Nexturastat A 0.154 | vemurafenib -0.105 | [11] -0.079 | [12] 0.103 | givinostat 0.036 | barasertib -0.109

TMEM97 (UniProt Q5BJF2)
inactive: IRAK-1-4 Inhibitor I 0.015 | ibrutinib 0.028 | [1] -0.034 | ralimetinib 0.02 | [2] 0.002 | [3] 0.126 | [4] -0.219 | pinometostat -0.002 | [5] 0.047 | [6] -0.018 | [7] 0.007 | [8] 0.016 | [9] 0.035 | [10] -0.036 | Nexturastat A -0.058 | vemurafenib -0.035 | [11] -0.091 | [12] -0.059 | givinostat 0.004 | barasertib -0.017

Reprinted from above (two entries):
TMX4 (UniProt Q9H1E5)
inactive: IRAK-1-4 Inhibitor I -0.02 | ibrutinib -0.006 | [1] -0.052 | ralimetinib 0.028 | [2] 0.017 | [3] 0.032 | [4] -0.01 | pinometostat 0.049 | [5] -0.015 | [6] 0.045 | [7] -0.009 | [8] 0.032 | [9] -0.067 | [10] -0.092 | Nexturastat A 0.005 | vemurafenib -0.023 | [11] -0.085 | [12] -0.024 | givinostat 0 | barasertib 0.03

TMEM11 (UniProt P17152)
inactive: IRAK-1-4 Inhibitor I -0.015 | ibrutinib 0.027 | [1] 0.033 | ralimetinib 0.022 | [2] 0.044 | [3] -0.059 | [4] -0.09 | pinometostat 0.01 | [5] 0.016 | [6] 0.039 | [7] -0.063 | [8] -0.031 | [9] 0.023 | [10] 0.051 | Nexturastat A -0.085 | vemurafenib 0.003 | [11] 0.009 | [12] -0.007 | givinostat -0.074 | barasertib 0.012

The list goes on.

TMX1 (UniProt Q9H3N1)
inactive: IRAK-1-4 Inhibitor I 0.013 | ibrutinib -0.022 | [1] -0.002 | ralimetinib -0.037 | [2] 0.028 | [3] 0.014 | [4] -0.012 | pinometostat -0.006 | [5] -0.009 | [6] 0.012 | [7] -0.025 | [8] 0.023 | [9] -0.031 | [10] -0.017 | Nexturastat A -0.049 | vemurafenib -0.013 | [11] -0.009 | [12] 0 | givinostat -0.04 | barasertib -0.008

TMEM208 (UniProt Q9BTX3)
inactive: IRAK-1-4 Inhibitor I 0.04 | ibrutinib -0.09 | [1] 0.078 | ralimetinib -0.145 | [2] -0.088 | [4] 0.046 | pinometostat 0.081 | [6] 0.081 | [7] -0.093 | [8] 0.005 | [9] 0.037 | [10] -0.022 | Nexturastat A -0.112 | vemurafenib -0.06 | [11] 0.035 | [12] -0.219 | givinostat 0.097 | barasertib -0.012
active: [3] -0.412

TMEM160 (UniProt Q9NX00)
inactive: IRAK-1-4 Inhibitor I 0.16 | ibrutinib 0.075 | [1] -0.04 | ralimetinib -0.038 | [2] -0.032 | [3] -0.106 | [4] -0.076 | pinometostat 0.217 | [5] 0.014 | [6] -0.011 | [7] -0.037 | [8] -0.005 | [9] -0.052 | [10] -0.213 | Nexturastat A 0.083 | vemurafenib -0.083 | [11] 0.049 | [12] 0.062 | givinostat -0.005 | barasertib -0.039

TMEM68 (UniProt Q96MH6)
inactive: IRAK-1-4 Inhibitor I -0.024 | ibrutinib 0.056 | [1] -0.002 | ralimetinib -0.026 | [2] -0.035 | [3] -0.017 | [4] 0.027 | pinometostat -0.04 | [5] 0 | [6] 0.034 | [7] -0.045 | [8] -0.002 | [9] -0.027 | [10] -0.001 | Nexturastat A 0.015 | vemurafenib 0.013 | [11] 0.038 | [12] 0.012 | givinostat 0.014 | barasertib -0.041

TMEM189 (UniProt A5PLL7)
inactive: IRAK-1-4 Inhibitor I 0.063 | ibrutinib 0.073 | [1] 0.095 | ralimetinib 0.034 | [2] -0.278 | [3] 0.018 | [4] -0.047 | pinometostat -0.01 | [5] 0.046 | [6] 0 | [7] 0.126 | [8] -0.108 | [9] 0.043 | [10] 0.047 | Nexturastat A 0.104 | vemurafenib 0.013 | [11] 0.045 | [12] -0.043 | givinostat 0.12 | barasertib -0.029

TMBIM6 isoform 2 (UniProt P55061)
inactive: IRAK-1-4 Inhibitor I 0.023 | ibrutinib 0.001 | [1] 0.004 | ralimetinib -0.208 | [4] 0.135 | pinometostat 0.017 | [6] -0.075 | [7] -0.05 | [8] 0.045 | [9] 0.04 | [10] -0.016 | Nexturastat A -0.005 | vemurafenib -0.121 | [11] 0.048 | [12] 0.619 | givinostat 0.072 | barasertib 0.019
active: [2] -0.437 | [3] -0.521

TMEM43 (UniProt Q9BTV4)
inactive: IRAK-1-4 Inhibitor I -0.049 | ibrutinib -0.008 | [1] 0.042 | ralimetinib 0.012 | [2] 0.006 | [3] -0.188 | [4] 0.02 | pinometostat 0.073 | [5] -0.041 | [6] 0 | [7] 0.01 | [8] -0.011 | [9] -0.023 | [10] -0.049 | Nexturastat A 0.04 | vemurafenib -0.016 | [11] -0.031 | [12] 0.035 | givinostat -0.002 | barasertib 0.013

TMEM192 (UniProt Q8IY95)
inactive: IRAK-1-4 Inhibitor I 0.047 | ibrutinib -0.014 | [1] -0.012 | ralimetinib 0.025 | [2] 0.004 | [4] 0.029 | pinometostat 0.051 | [6] -0.019 | [7] 0.013 | [8] -0.032 | [9] 0.026 | [10] -0.028 | Nexturastat A 0.004 | vemurafenib -0.006 | [11] -0.026 | [12] -0.014 | givinostat -0.038 | barasertib -0.005
active: [3] -0.481
